Reference: article PMC7851395 (British Journal of Cancer, 2020)
Results are given in words; binding and its absence hold for the method and conditions named. In cells and extracts the contact can be indirect. Some results given as binding are weak or reduced against the parent protein; the word gives no strength.

Chains of the proteins cited; added tags and fusions are not shown.
UniProt P40763: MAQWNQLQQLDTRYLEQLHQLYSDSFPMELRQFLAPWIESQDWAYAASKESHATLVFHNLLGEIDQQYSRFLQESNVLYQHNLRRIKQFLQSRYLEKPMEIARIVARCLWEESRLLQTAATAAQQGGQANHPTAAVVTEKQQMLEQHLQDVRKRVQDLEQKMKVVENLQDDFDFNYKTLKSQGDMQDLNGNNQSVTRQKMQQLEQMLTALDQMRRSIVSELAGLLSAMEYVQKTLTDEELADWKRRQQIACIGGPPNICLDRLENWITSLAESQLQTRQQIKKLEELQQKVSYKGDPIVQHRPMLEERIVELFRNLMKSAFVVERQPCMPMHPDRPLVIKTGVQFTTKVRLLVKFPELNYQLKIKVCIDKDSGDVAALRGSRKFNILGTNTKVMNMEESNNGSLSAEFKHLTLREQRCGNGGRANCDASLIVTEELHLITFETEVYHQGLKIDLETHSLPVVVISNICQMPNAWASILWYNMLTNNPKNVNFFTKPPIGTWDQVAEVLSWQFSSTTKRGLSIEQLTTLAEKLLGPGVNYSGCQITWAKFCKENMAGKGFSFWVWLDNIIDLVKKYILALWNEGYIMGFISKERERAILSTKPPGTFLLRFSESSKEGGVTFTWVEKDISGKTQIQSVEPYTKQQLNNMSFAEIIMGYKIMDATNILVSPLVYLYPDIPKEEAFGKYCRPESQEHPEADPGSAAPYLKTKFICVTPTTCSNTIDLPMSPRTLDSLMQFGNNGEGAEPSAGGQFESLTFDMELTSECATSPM
UniProt P50750: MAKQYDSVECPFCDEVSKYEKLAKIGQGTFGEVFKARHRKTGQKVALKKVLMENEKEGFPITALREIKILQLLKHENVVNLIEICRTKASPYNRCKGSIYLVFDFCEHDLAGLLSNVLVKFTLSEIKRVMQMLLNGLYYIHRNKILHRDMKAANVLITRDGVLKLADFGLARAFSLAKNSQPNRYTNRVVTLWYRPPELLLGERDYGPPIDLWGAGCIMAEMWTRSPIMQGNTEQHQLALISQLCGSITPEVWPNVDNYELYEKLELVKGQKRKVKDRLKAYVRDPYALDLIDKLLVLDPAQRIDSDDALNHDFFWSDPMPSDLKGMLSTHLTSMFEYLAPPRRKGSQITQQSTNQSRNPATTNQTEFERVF

Molecular target: STAT3 (human (endogenous in H460)) (UniProt P40763)
Assay: co-IP; 1 mg whole-cell extracts of H460 cells stimulated with IL6 (25 ng/ml) for 30 min or left untreated; polyclonal antibodies against CDK9, STAT3 or nonspecific antibodies, 4 °C overnight; protein A/G agarose beads; washed with cold PBS; endogenous proteins, no transfection

binding: binds
Substance: Cyclin-dependent kinase 9 (from UniProt P50750 1-372)
